Assay results as given in publication PMC12613626.

Amino acid sequences for entries named in this document (tags omitted).
UniProt Q13562: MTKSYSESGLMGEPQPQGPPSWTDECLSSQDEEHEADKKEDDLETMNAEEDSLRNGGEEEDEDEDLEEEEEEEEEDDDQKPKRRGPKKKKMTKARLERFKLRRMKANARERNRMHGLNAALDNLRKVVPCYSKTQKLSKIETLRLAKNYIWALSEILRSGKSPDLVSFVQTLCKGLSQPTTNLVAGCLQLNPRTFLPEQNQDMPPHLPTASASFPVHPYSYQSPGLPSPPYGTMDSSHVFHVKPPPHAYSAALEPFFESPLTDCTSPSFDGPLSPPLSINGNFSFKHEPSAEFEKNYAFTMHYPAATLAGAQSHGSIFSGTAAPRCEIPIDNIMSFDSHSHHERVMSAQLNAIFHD

Molecular target: GFP-labeled NeuroD1 (neurogenic differentiation factor 1) overexpressed in Panc-1 cells (UniProt Q13562)
Assay: affinity purification with mass spectrometry; Co-IP from OE-NeuroD1-GFP Panc-1 cells against normal IgG control; lysis in NETN buffer (20 mM Tris-HCl pH 8.0, 100 mM NaCl, 1 mM EDTA, 0.5% NP-40), antibody pre-bound to Protein A/G agarose, 4 h at 4 °C, five washes, mass spectrometry; hits crossed with a PPI network database

binding: binds
B1: Neurogenin 3 (Neurog3) in NeuroD1-GFP-overexpressing Panc-1 cells (protein, UniProt Q9Y4Z2 1-214)
chain: MTPQPSGAPTVQVTRETERSFPRASEDEVTCPTSAPPSPTRTRGNCAEAEEGGCRGAPRKLRARRGGRSRPKSELALSKQRRSRRKKANDRERNRMHNLNSALDALRGVLPTFPDDAKLTKIETLRFAHNYIWALTQTLRIADHSLYALEPPAPHCGELGSPGGSPGDWGSLYSPVSQAGSLSPAASLEERPGLLGATFSACLSPGSLAFSDFL

Results are given in words; binding and its absence hold for the method and conditions named. Binding seen in cells or lysates may run through a third protein. These calls come from enrichment with a bait or labelling near it, and not all partners need be listed. Where a sequence is shown, tags or fusion partners need not be part of it.
